Some of these results come from one statement about several compounds together.
Tested on: Sk-Hep1, HepG2 and Huh7 cells
Assay: Annexin-FITC and caspase 3/7 assays of TRAIL resistance in TRAIL-sensitive HCC cell lines
Type: cell-based, human
Conditions: TRAIL 400 ng/ml 24 h

miR-222: microRNA transfected (100 nM) for enforced expression (GAGACCCAGTAGCCAGATGTAGCT; listed as DNA, chemistry not given here)
increase in TRAIL resistance (Annexin-FITC and caspase 3/7 assays): 30-40%

Reference: US9212396B2, “Materials and methods useful for affecting tumor cell growth, migration and invasion” (The Ohio State University, priority 2009, dated 2015)
